In publication PMC7819943, “Rice protein-binding microarrays: a tool to detect cis-acting elements near promoter regions in rice” one finds binding signal data, which are given here for 23 sequences.

Sequences of proteins named here, by UniProt entry; tags and fusion partners are left off.
UniProt Q0JBA9, entry or part of it: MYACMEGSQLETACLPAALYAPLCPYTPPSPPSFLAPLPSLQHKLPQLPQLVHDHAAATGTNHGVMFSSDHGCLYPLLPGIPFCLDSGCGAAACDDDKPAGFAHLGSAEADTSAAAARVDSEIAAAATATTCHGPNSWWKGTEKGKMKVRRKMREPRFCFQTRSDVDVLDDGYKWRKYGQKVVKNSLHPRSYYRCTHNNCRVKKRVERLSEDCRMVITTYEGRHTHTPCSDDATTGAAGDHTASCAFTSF

Some of the results follow.

In the experiment the target is OsWRKY34 (Oryza sativa, UniProt Q0JBA9 1-250). Description: protein-binding microarray (RPBM); PBS, 2% BSA, 51.3 ng/ul salmon testes DNA, 50 uM zinc acetate, 200 nM TF, 25 C, 1 h; high values mean tight binding. The settings on record: protein: recombinant; tags: N-terminal polyhistidine and DsRed monomer fusion (pET32a); label: CyDye5-dUTP incorporated in the synthesized complementary strand; 3' TTTTT single-stranded linker to array surface; dsDNA, one strand shown. In outline:
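The binding signal is fluorescence intensity per array feature (arbitrary units). Readings came from an Axon 4000B scanner after a washed, 2% BSA-blocked, double-stranded custom Agilent array had been incubated for 1 h at 25 °C with 200 nM protein and 50 µM zinc acetate. The protein was a Ni–NTA-purified transcription factor fused N-terminally to polyhistidine and DsRed, expressed in E. coli BL21-CodonPlus.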
For the sequence “TCCAACGAAGCCCAGCAGAACTTTTGTCCGTTTTCTTTTTCGGAGTCACCTAGTGCAG”, the binding signal is 11400 fluorescence intensity (a.u.).

Turning to “GTTCGTGCGTTTTCTTGGATGAGATTTGGGGTGACGTCCTCGGAGTCACCTAGTGCAG”, the binding signal is 9540 fluorescence intensity (a.u.).

“CTCCCGCCGCGACTCGCCGCCGCGCGCGGCATCTCCGGCCCGGAGTCACCTAGTGCAG”: the binding signal is 8820 fluorescence intensity (a.u.).

Regarding “CATTTTTCTCCGGGACCTGCCAATTTCCAGCGAGCAAGTTCGGAGTCACCTAGTGCAG”, the binding signal is 8780 fluorescence intensity (a.u.).

In the case of “AATCCAGCGGAAAGCAACCCCGTCCGCGCGCTACGCCACCCGGAGTCACCTAGTGCAG”, the binding signal is 8380 fluorescence intensity (a.u.).

With “GAAGAAGCATGGCCAGCTTCACATATTGACCGCACATACACGGAGTCACCTAGTGCAG”, the binding signal is 8460 fluorescence intensity (a.u.).

Regarding “GCATTTCTTTTTTCCCATGGTAGGATACTTCCACCCAGCTCGGAGTCACCTAGTGCAG”, the binding signal is 10100 fluorescence intensity (a.u.).

Consider “TCTCCTTGATTCCCGCTTCTCACACGCATTATTTGTTTCACGGAGTCACCTAGTGCAG”, for which the binding signal was 18500 fluorescence intensity (a.u.).

Take “CTCTCATTGTATCTATCATAAATTTCTTACTGTACTTGTCCGGAGTCACCTAGTGCAG”: the binding signal is 8570 fluorescence intensity (a.u.).

For the sequence “TTCCCTTGGCCATCGTCTCTCTCTTGCCTTCTTCTTCTCACGGAGTCACCTAGTGCAG”, the binding signal was 8370 fluorescence intensity (a.u.).

As for “TTCTGCCGCCGTCGGTTTCGGCTTGAGCTCTGGGTTTATTCGGAGTCACCTAGTGCAG”, the binding signal is 9360 fluorescence intensity (a.u.).

For the sequence “TTCAGGTGATCTTCCCATCATTATTTCTTGTGCTAGTCTTCGGAGTCACCTAGTGCAG”, the binding signal was 12100 fluorescence intensity (a.u.).

Take “CTCTCCTCCTTTCTTCTCCAAGTCAACAGTTCCTACGCTACGGAGTCACCTAGTGCAG”: the binding signal was 9050 fluorescence intensity (a.u.).

On to “GCTCTCCGCCGCCGCCGCCGCCGTCTCCAACTTCAAGATGCGGAGTCACCTAGTGCAG”, for which the binding signal is 10100 fluorescence intensity (a.u.).

As for “CTTGCCACGTTAAGACCCAAGGCTACGTTACCTGCACTTTCGGAGTCACCTAGTGCAG”, the binding signal is 8580 fluorescence intensity (a.u.).

As to “ATTTTCCGTCCCCTTACCACGCTATTTCTCACGATTAATACGGAGTCACCTAGTGCAG”, the binding signal is 8340 fluorescence intensity (a.u.).

Take “ATTGATTTTTCCTTTTATGACGGCTCCTTTCCTTGGAATCCGGAGTCACCTAGTGCAG”: the binding signal was 9280 fluorescence intensity (a.u.).

Turning to “ACATGTTACTCCGCAGAAGTAGAGGCGTTTTGTTTTTGACCGGAGTCACCTAGTGCAG”, the binding signal was 9420 fluorescence intensity (a.u.).

In the case of “ATGGTTGTGATTTGTTTAGGTCGAGTAAAGGAGGAATTCCCGGAGTCACCTAGTGCAG”, the binding signal is 8840 fluorescence intensity (a.u.).

With “TCAATTTATCTGGCATCTGGCGCTTTTTACTCATTTAAGACGGAGTCACCTAGTGCAG”, the binding signal was 9630 fluorescence intensity (a.u.).

For “CCACTTAGATGCCCACGCGTTTATTAATCGCCACCACCTTCGGAGTCACCTAGTGCAG”, the binding signal was 8680 fluorescence intensity (a.u.).

For the sequence “TGCTCCATGTATGTGTCTAAATATTTGATGTGATGTTTTTCGGAGTCACCTAGTGCAG”, the binding signal was 10200 fluorescence intensity (a.u.).

Turning to “CATCCAGGCTCCGCCGCTGCCACCGCTACCCTTTTTACTACGGAGTCACCTAGTGCAG”, the binding signal was 12400 fluorescence intensity (a.u.).
